The other results are listed elsewhere or left out.
Key:
Assay in all cases: log2 fold change, soluble protein after heating vs DMSO (PISA); higher = thermal stabilisation; K562 cells, 10 uM, 30 min; active = over 0.2 and 3.5 SD of the protein, either way, in both replicates (recomputed)
idasanutlin = compound: COc1cc(C(=O)O)ccc1NC(=O)[C@@H]1N[C@@H](CC(C)(C)C)[C@](C#N)(c2ccc(Cl)cc2F)[C@H]1c1cccc(Cl)c1F [idasanutlin]
Procedure, shortened: (§1)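 Thermal stability values are relative to control samples and come from duplicates. They are expressed as log2 fold changes. For measurement, K562 cells (2×10^6 cells/mL) received 10 μM compound for 30 min, and aliquots were heated for 3 min over 48°C-58°C, pooled, and extracted at 4°C in PBS with 0.5% NP-40. Soluble protein, the supernatant after 21,000xg for 90 min, was quantified by TMTpro 16plex LC-MS/MS with equalised channel sums.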

Protein sequences, listed by entry. Tags and fused reporters are not part of them. Lines headed by an entry give the natural chain unless they say otherwise; changes in a name come on top.
UniProt Q6P2H3: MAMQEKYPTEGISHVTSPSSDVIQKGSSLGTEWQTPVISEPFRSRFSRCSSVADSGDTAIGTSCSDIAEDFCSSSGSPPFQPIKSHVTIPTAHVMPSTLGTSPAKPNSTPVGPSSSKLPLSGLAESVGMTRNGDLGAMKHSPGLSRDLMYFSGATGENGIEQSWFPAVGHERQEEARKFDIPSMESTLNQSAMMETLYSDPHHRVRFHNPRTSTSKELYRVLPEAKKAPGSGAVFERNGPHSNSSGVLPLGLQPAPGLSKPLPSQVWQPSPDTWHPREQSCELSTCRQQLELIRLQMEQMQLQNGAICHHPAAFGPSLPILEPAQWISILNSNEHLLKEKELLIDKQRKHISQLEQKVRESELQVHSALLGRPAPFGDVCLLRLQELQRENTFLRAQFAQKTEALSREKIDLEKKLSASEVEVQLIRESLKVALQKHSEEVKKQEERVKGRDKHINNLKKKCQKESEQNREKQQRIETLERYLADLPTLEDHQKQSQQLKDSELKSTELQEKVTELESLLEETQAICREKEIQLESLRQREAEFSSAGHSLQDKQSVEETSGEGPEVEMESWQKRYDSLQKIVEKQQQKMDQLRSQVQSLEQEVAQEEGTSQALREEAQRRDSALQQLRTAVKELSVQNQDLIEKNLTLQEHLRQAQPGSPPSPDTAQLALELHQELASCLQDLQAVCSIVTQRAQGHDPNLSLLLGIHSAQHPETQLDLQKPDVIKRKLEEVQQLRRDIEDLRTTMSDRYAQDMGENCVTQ
UniProt Q9HCK8: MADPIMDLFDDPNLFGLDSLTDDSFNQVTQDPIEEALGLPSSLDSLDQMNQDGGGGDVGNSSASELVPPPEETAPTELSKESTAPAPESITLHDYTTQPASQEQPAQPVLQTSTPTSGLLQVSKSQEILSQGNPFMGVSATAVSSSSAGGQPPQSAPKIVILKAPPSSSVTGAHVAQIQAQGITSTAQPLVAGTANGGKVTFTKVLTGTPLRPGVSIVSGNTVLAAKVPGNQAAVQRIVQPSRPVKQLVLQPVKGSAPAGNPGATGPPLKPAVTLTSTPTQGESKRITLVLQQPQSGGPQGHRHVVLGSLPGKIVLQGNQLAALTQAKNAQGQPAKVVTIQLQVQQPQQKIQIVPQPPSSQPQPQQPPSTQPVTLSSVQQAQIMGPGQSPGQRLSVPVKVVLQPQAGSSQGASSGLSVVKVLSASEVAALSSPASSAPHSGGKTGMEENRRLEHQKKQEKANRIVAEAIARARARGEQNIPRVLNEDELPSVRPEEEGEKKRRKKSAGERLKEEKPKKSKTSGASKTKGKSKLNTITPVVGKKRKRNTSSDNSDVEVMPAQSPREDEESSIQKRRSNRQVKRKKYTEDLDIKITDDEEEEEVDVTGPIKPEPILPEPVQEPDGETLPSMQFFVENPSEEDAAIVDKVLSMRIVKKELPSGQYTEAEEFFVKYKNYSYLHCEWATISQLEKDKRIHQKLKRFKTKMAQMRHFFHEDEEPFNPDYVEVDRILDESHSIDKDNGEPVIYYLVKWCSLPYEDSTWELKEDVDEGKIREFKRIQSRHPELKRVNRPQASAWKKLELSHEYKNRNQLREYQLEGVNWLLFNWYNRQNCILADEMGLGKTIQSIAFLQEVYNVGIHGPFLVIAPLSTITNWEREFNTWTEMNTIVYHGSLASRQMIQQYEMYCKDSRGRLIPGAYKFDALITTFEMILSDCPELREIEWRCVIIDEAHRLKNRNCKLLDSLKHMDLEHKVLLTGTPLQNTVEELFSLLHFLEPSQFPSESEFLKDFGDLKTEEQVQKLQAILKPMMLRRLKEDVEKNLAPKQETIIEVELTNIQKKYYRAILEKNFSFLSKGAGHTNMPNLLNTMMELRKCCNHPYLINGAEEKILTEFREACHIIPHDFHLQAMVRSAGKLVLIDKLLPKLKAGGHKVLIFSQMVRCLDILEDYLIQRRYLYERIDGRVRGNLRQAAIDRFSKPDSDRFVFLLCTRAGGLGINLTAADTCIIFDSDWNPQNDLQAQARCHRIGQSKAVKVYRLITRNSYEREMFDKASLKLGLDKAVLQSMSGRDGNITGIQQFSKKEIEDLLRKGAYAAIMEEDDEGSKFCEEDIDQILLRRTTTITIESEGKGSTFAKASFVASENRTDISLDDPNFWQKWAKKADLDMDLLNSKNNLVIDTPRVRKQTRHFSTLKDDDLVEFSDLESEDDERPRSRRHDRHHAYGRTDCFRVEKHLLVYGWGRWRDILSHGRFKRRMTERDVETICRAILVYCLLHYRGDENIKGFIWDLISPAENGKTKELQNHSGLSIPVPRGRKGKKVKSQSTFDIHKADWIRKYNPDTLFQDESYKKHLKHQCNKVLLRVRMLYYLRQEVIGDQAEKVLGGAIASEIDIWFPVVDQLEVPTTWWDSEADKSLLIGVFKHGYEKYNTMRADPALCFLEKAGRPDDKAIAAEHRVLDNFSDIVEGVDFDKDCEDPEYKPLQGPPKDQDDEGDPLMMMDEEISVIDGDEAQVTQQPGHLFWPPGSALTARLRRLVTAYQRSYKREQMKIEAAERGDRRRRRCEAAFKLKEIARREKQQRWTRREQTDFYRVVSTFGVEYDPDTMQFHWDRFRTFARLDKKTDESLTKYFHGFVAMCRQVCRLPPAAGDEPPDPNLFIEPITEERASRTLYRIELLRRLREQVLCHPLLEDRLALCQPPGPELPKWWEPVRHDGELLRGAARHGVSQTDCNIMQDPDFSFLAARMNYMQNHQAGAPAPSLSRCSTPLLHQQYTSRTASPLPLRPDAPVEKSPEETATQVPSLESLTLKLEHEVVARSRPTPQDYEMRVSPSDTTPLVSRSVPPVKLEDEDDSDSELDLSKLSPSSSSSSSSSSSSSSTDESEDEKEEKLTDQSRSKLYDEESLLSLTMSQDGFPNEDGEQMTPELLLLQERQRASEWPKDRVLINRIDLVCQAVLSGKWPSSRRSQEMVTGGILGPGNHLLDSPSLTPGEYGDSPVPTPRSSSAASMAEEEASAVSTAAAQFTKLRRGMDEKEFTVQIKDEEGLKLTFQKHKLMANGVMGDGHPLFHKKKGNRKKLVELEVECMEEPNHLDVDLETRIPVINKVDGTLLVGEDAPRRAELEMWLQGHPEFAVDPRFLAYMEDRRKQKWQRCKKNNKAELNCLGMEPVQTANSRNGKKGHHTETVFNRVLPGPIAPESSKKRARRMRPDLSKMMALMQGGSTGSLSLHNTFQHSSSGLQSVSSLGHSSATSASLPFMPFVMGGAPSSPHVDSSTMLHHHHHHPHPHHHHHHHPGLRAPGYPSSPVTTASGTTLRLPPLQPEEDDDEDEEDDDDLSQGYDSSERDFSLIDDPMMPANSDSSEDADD
UniProt Q9BWU1: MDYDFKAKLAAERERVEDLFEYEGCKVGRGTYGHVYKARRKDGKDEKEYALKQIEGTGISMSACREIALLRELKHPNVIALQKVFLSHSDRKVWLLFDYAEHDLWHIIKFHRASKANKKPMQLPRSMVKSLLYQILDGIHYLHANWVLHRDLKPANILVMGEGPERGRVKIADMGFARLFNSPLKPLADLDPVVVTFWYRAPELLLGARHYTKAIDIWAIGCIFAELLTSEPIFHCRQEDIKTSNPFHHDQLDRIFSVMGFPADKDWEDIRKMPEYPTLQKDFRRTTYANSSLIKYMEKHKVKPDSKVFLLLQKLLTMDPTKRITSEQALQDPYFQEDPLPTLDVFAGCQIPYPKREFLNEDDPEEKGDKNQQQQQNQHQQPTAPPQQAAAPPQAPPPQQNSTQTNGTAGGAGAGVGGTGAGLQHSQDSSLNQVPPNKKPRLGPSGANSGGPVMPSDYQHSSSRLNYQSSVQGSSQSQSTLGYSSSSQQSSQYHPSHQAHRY
UniProt O14519: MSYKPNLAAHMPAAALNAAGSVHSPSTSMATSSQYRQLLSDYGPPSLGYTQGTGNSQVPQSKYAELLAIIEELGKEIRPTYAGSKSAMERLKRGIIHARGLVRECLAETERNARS
UniProt Q7Z7K6: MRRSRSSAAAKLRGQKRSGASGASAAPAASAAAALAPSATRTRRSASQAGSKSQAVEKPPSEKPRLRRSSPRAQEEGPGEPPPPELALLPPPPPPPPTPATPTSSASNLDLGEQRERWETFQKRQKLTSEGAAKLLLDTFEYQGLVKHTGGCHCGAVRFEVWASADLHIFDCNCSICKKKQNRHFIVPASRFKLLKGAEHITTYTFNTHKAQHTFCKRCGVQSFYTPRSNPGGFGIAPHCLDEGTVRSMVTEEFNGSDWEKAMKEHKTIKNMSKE
UniProt Q86WJ1: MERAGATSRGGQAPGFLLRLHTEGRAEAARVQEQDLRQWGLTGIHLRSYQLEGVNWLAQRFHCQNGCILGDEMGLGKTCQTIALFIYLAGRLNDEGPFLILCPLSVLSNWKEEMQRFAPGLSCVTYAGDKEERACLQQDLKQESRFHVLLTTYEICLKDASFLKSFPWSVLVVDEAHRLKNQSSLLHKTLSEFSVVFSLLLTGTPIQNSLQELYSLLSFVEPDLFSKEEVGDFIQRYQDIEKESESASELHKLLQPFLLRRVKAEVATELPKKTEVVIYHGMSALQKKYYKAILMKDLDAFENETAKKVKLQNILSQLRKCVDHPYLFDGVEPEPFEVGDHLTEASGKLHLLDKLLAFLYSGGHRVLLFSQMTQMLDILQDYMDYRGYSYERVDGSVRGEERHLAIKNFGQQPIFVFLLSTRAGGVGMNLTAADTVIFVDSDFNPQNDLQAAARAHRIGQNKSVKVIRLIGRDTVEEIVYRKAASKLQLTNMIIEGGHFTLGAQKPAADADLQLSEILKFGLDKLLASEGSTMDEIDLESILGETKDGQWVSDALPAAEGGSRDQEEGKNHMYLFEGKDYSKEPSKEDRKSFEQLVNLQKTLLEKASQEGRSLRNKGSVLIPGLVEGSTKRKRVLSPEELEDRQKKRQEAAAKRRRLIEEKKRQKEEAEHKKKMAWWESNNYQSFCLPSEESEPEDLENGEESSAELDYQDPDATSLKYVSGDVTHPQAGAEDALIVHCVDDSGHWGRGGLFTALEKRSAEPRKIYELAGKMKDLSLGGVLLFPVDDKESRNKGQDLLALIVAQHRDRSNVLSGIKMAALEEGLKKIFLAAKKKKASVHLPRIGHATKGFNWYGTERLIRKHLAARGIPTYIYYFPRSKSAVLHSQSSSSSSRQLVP
UniProt P55290: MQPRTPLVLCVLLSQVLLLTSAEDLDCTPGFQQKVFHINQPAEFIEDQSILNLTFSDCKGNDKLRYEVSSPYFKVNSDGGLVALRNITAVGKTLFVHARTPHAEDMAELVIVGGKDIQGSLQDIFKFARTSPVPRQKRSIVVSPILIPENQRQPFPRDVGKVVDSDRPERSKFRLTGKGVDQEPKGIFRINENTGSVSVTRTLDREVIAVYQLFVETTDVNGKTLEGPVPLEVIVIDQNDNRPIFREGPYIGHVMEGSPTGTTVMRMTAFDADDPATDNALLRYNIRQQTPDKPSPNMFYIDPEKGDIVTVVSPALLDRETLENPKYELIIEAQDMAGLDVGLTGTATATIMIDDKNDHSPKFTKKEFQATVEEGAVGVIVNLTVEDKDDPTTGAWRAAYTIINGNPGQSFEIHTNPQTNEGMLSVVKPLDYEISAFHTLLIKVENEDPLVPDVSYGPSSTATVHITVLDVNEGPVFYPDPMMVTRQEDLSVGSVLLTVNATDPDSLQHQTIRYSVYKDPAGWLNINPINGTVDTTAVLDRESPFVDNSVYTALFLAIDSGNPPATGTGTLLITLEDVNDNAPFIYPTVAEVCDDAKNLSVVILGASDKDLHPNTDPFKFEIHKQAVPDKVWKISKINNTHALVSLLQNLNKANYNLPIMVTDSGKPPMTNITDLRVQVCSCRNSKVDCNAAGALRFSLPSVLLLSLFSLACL
UniProt Q9UKI2, whole entry, looked up: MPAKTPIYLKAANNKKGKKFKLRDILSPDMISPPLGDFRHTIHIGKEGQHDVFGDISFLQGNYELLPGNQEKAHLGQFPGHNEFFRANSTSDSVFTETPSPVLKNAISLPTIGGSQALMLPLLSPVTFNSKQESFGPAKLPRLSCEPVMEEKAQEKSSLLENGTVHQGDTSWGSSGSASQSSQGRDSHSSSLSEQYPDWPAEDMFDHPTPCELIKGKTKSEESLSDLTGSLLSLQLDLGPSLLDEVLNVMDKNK
UniProt Q86X02: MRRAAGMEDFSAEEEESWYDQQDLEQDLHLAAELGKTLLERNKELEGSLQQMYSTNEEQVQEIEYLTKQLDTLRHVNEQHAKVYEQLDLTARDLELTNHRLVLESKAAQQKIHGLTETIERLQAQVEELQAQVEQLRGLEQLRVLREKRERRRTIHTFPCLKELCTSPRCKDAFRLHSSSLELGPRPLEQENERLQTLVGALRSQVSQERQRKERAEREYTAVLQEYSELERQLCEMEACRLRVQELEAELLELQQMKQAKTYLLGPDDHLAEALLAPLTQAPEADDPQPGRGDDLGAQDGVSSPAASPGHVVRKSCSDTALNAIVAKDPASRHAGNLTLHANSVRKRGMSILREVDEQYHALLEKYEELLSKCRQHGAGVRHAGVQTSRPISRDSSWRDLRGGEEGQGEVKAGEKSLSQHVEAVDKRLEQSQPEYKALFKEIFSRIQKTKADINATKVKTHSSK

[1] = compound: COc1cc2nc(-c3cc(F)ccc3O)nc(N[C@@H]3CNC[C@H]3C(C)(C)O)c2cc1OC
Procedure, shortened: as §1

lapatinib = compound: CS(=O)(=O)CCNCc1ccc(-c2ccc3ncnc(Nc4ccc(OCc5cccc(F)c5)c(Cl)c4)c3c2)o1 [lapatinib]
Procedure, shortened: as §1

[2] = compound: C[C@@H]1COCCN1C2=NC(=NC(=C2)C3(CC3)S(=O)(=O)C)C4=C5C=CNC5=CC=C4
Procedure, shortened: as §1

[3] = compound: Cc1cc(SCc2sc(-c3ccc(C(F)(F)F)cc3)nc2C)ccc1OCC(=O)O
Procedure, shortened: as §1

alisertib = compound: COc1cc(Nc2ncc3c(n2)-c2ccc(Cl)cc2C(c2c(F)cccc2OC)=NC3)ccc1C(=O)O [alisertib]
Procedure, shortened: as §1

[4] = compound: COc1cccc2cc(-c3nc([C@H]4CC[C@H](C(=O)O)CC4)n4ncnc(N)c34)[nH]c12
Procedure, shortened: as §1

pictilisib = compound: CS(=O)(=O)N1CCN(Cc2cc3nc(-c4cccc5[nH]ncc45)nc(N4CCOCC4)c3s2)CC1 [pictilisib]
Procedure, shortened: as §1

duvelisib = compound: C[C@H](Nc1ncnc2nc[nH]c12)c1cc2cccc(Cl)c2c(=O)n1-c1ccccc1 [duvelisib]
Procedure, shortened: as §1

gandotinib = compound: Cc1cc(Nc2cc(CN3CCOCC3)c3nc(C)c(Cc4ccc(Cl)cc4F)n3n2)n[nH]1 [gandotinib]
Procedure, shortened: as §1

ispinesib = compound: Cc1ccc(C(=O)N(CCCN)[C@@H](c2nc3cc(Cl)ccc3c(=O)n2Cc2ccccc2)C(C)C)cc1 [ispinesib]
Procedure, shortened: as §1

[5] = compound: COC1=CC=C(C=C1)CN2C=CC3=C2C=C(C=C3)C(=O)NO
Procedure, shortened: as §1

crizotinib = compound: C[C@@H](Oc1cc(-c2cnn(C3CCNCC3)c2)cnc1N)c1c(Cl)ccc(F)c1Cl [crizotinib]
Procedure, shortened: as §1

doramapimod = compound: Cc1ccc(-n2nc(C(C)(C)C)cc2NC(=O)Nc2ccc(OCCN3CCOCC3)c3ccccc23)cc1 [doramapimod]
Procedure, shortened: as §1

filanesib = compound: CON(C)C(=O)N1N=C(c2cc(F)ccc2F)S[C@@]1(CCCN)c1ccccc1 [filanesib]
Procedure, shortened: as §1

[6] = compound: CS(=O)(=O)c1ccc(-c2cnc(N)c(C(=O)Nc3ccccc3)n2)cc1
Procedure, shortened: as §1

zotarolimus = compound: CO[C@H]1C[C@@H]2CC[C@@H](C)[C@@](O)(O2)C(=O)C(=O)N2CCCC[C@H]2C(=O)O[C@H]([C@H](C)C[C@@H]2CC[C@H](n3cnnn3)[C@H](OC)C2)CC(=O)[C@H](C)/C=C(\C)[C@@H](O)[C@@H](OC)C(=O)[C@H](C)C[C@H](C)/C=C/C=C/C=C/1C [zotarolimus]
Procedure, shortened: as §1

[7] = compound: C[C@H](C1=CC=C(C=C1)C(=O)NC2=C3C=CNC3=NC=C2)N
Procedure, shortened: as §1

tozasertib = compound: Cc1cc(Nc2cc(N3CCN(C)CC3)nc(Sc3ccc(NC(=O)C4CC4)cc3)n2)n[nH]1 [tozasertib]
Procedure, shortened: as §1

gefitinib = compound: COc1cc2ncnc(Nc3ccc(F)c(Cl)c3)c2cc1OCCCN1CCOCC1 [gefitinib]
Procedure, shortened: as §1

Measured: log2 fold change

CFAP47 (UniProt Q6ZTR5)
inactive: idasanutlin -0.496 | [1] 0.031 | lapatinib -0.106 | [2] 0.099 | [3] -0.302

CEP85 (UniProt Q6P2H3)
inactive: idasanutlin 0.333 | alisertib -0.007 | [1] 0.188 | [4] 0.221 | lapatinib 0 | pictilisib -0.034 | duvelisib 0.045 | gandotinib 0.156 | [3] -0.183 | ispinesib -0.244

CEP83 (UniProt Q9Y592)
inactive: [5] -0.237 | crizotinib 0.014 | doramapimod -0.003 | ispinesib -0.073

CEFIP (UniProt Q711Q0)
inactive: idasanutlin 0.105 | alisertib -0.175 | [1] 0.077 | [4] 0.037 | lapatinib 0.046 | [2] -0.05

CDKN1C (UniProt P49918)
inactive: filanesib -0.111 | alisertib -0.165 | [4] -0.408 | pictilisib 0.006 | [6] 0.043 | [2] -0.014 | duvelisib -0.028 | gandotinib -0.186 | [3] -0.014 | ispinesib 0.192

CEBPZ (UniProt Q03701)
inactive: filanesib 0.38 | zotarolimus 0.173 | alisertib -0.119 | [4] -0.108 | pictilisib 0.117 | [6] -0.215 | [7] 0.261 | duvelisib 0.045 | gandotinib -0.034 | tozasertib 0.014 | [3] 0.016

CER1 (UniProt O95813)
inactive: pictilisib -0.831 | gandotinib 0.816

CFAP58 (UniProt Q5T655)
inactive: alisertib -0.156 | [1] 0 | [4] 0.032 | lapatinib 0.001 | pictilisib 0.122 | gandotinib -0.011 | ispinesib -0.165

CDC42EP2 (UniProt O14613)
inactive: filanesib 0.17 | [6] -0.153 | [2] -0.141 | tozasertib -0.2

CHD8 (UniProt Q9HCK8)
inactive: [2] 0.147 | ispinesib -0.047

CDC42EP4 (UniProt Q9H3Q1)
inactive: filanesib 0.02 | zotarolimus -0.187 | alisertib -0.055 | [1] -0.018 | gefitinib 0.038 | [4] 0.095 | lapatinib 0.033 | pictilisib 0.02 | [6] 0.047 | [2] -0.013 | [7] 0.009 | duvelisib -0.058 | gandotinib -0.02 | tozasertib -0.115 | [3] 0.056 | ispinesib -0.016

CHMP2A (UniProt M0R1T5)
inactive: idasanutlin -0.359 | alisertib 0.417 | [1] 0.064 | [4] 0.258 | lapatinib 0.061 | tozasertib -0.073

CDS1 (UniProt Q92903)
inactive: zotarolimus -0.249 | alisertib 0.213 | [4] -0.069 | [2] -0.062 | [7] -0.027 | duvelisib -0.105 | [3] 0.055

CHIC2 (UniProt Q9UKJ5)
inactive: filanesib 0.018 | zotarolimus -0.068 | idasanutlin -0.023 | alisertib 0.096 | [1] -0.146 | gefitinib -0.038 | [4] -0.069 | lapatinib -0.059 | pictilisib 0.19 | [6] 0.094 | [2] 0.098 | [7] -0.009 | duvelisib 0.161 | gandotinib -0.044 | [3] -0.102 | ispinesib 0.115

CHIC1 (UniProt Q5VXU3)
inactive: filanesib 0.143 | idasanutlin 0.136 | alisertib 0 | [1] 0.113 | gefitinib 0.064 | [4] 0.138 | lapatinib -0.092 | pictilisib 0.018 | [6] 0.014 | [2] -0.208 | duvelisib 0.188 | gandotinib 0.121 | tozasertib -0.131 | [3] -0.042 | ispinesib -0.172

CDT1 (UniProt Q9H211)
inactive: [2] -0.076

CDK19 (UniProt Q9BWU1)
inactive: filanesib 0.154 | zotarolimus -0.069 | idasanutlin -0.161 | alisertib 0.234 | [1] 0.138 | gefitinib -0.095 | [4] -0.045 | lapatinib -0.192 | pictilisib 0.073 | [6] 0.042 | [2] 0.03 | [7] 0.401 | gandotinib -0.051 | [3] 0.034 | ispinesib 0.291

CEBPG (UniProt P53567)
inactive: zotarolimus -0.158 | idasanutlin -0.055 | [1] -0.003 | gefitinib 0.103 | lapatinib 0.017 | pictilisib 0.238 | [7] 0.116 | gandotinib 0.11 | ispinesib 0.013

CDC42SE2 (UniProt Q9NRR3)
inactive: filanesib -0.004 | zotarolimus -0.024 | idasanutlin 0.049 | alisertib -0.168 | [1] -0.073 | gefitinib -0.027 | [4] -0.151 | lapatinib -0.016 | [6] 0.049 | [2] 0.052 | [7] -0.27 | tozasertib -0.023

2 entries picked at random from those above, as already listed:
CDT1 (UniProt Q9H211)
inactive: [2] -0.076

CDK19 (UniProt Q9BWU1)
inactive: filanesib 0.154 | zotarolimus -0.069 | idasanutlin -0.161 | alisertib 0.234 | [1] 0.138 | gefitinib -0.095 | [4] -0.045 | lapatinib -0.192 | pictilisib 0.073 | [6] 0.042 | [2] 0.03 | [7] 0.401 | gandotinib -0.051 | [3] 0.034 | ispinesib 0.291

(list continues)

CDK2AP1 (UniProt O14519)
inactive: filanesib -0.073 | idasanutlin -0.251 | alisertib -0.142 | [1] -0.044 | gefitinib -0.022 | [4] 0.074 | lapatinib 0.05 | pictilisib 0.029 | [6] -0.058 | [2] 0.153 | gandotinib -0.111 | ispinesib 0.104

CENPV (UniProt Q7Z7K6)
inactive: filanesib 0.646 | zotarolimus 0.099 | [1] -0.134 | lapatinib 0.329 | pictilisib -0.029 | [6] -0.118 | [2] -0.337 | [7] 0.317 | gandotinib 0.115 | ispinesib -0.409

CHD1L (UniProt Q86WJ1)
inactive: filanesib 0.162 | pictilisib -0.322 | [6] -0.027 | gandotinib 0.205

CDH13 isoform 4 (UniProt P55290)
inactive: duvelisib -0.038 | [3] 0.163

CHD1 (UniProt O14646)
inactive: idasanutlin -0.041 | pictilisib 0.081 | [2] 0.008 | gandotinib 0.039

CDCA8 (UniProt Q53HL2)
inactive: filanesib 0.032 | [6] 0.146 | ispinesib -0.093

CEND1 (UniProt Q8N111)
inactive: filanesib -0.031 | idasanutlin 0.017 | [1] 0.108 | lapatinib -0.024 | [6] -0.05 | tozasertib -0.109 | ispinesib -0.078

CDKN2AIPNL (UniProt Q96HQ2)
inactive: gefitinib -0.043

CENPX (UniProt A8MT69)
inactive: filanesib 0.115 | [6] 0.007

CELSR2 (UniProt Q9HCU4)
inactive: zotarolimus -0.139 | [7] 0.023

CFB (UniProt P00751)
inactive: filanesib 0.149 | zotarolimus -0.26 | alisertib 0.078 | gefitinib -0.027 | [4] 0.201 | pictilisib -0.319 | [6] 0.066 | [7] 0.27 | duvelisib -0.11 | gandotinib -0.018 | [3] -0.079 | ispinesib -0.01

CDC42EP3 (UniProt Q9UKI2)
inactive: alisertib -0.188 | [4] 0.01 | [2] -0.053

CENPQ (UniProt Q7L2Z9)
inactive: filanesib 0.038 | zotarolimus -0.312 | alisertib 0.037 | gefitinib 0.06 | [4] -0.135 | [6] -0.025 | [2] 0.149 | [7] 0.155 | duvelisib 0.159 | tozasertib -0.025 | [3] -0.083

CHD5 (UniProt Q8TDI0)
inactive: filanesib 0.052 | zotarolimus 0.142 | idasanutlin 0.064 | alisertib 0.01 | [1] -0.009 | gefitinib -0.003 | [4] -0.195 | lapatinib -0.035 | pictilisib 0.054 | [6] -0.126 | [2] 0.106 | [7] 0.017 | duvelisib -0.013 | gandotinib 0.091 | tozasertib 0.228 | [3] 0.152 | ispinesib -0.108

CDH5 (UniProt P33151)
inactive: filanesib 0.298 | alisertib -0.146 | [4] 0.01 | [6] 0.001 | [2] 0.078

CEP57 (UniProt Q86XR8)
inactive: filanesib 0.152 | zotarolimus 0.075 | alisertib -0.191 | gefitinib -0.23 | [4] -0.19 | pictilisib -0.175 | [6] -0.009 | [7] 0.342 | gandotinib -0.112

CFL1 (UniProt E9PP50)
inactive: gefitinib -0.142 | pictilisib 0.105 | gandotinib -0.085

CDR2L (UniProt Q86X02)
inactive: zotarolimus -0.077 | idasanutlin 0.034 | pictilisib 0.162 | [7] -0.151 | duvelisib 0.045 | gandotinib -0.43 | tozasertib -0.079 | [3] 0.064 | ispinesib -0.257

CDC6 (UniProt Q99741)
inactive: [2] -0.225 | duvelisib 0.014 | [3] 0.13

Source: the supplement of paper PMC10849652
